No constants are given. Whether binding was seen depends on the method and setting. Some binding calls cover weakened binding; strength is not graded here.
Molecular target: T1, FcγRIV
T1 construct: also called mouse FcγRIV; mFcγRIV
T1 chain: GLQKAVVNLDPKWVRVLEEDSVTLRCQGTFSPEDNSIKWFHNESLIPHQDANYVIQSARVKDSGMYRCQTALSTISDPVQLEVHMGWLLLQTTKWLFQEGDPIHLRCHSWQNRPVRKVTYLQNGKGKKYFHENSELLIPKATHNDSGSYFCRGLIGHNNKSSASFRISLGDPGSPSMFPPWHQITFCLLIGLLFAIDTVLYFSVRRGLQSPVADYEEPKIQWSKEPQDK
Assay: no assay stated; drawn summary table of graded binding (- to ++++), for which the text cites Nimmerjahn et al. 2005

B1: IgG2a (antibody)
heavy chain constant region: TTAPSVYPLAPVCGGTTGSSVTLGCLVKGYFPEPVTLTWNSGSLSSGVHTFPALLQSGLYTLSSSVTVTSNTWPSQTITCNVAHPASSTKVDKKIEPRVPITQNPCPPLKECPPCAAPDLLGGPSVFIFPPKIKDVLMISLSPMVTCVVVDVSEDDPDVQISWFVNNVEVHTAQTQTHREDYNSTLRVVSALPIQHQDWMSGKEFKCKVNNRALPSPIEKTISKPRGPVRAPQVYVLPPPAEEMTKKEFSLTCMITGFLPAEIAVDWTSNGRTEQNYKNTATVLDSDGSYFMYSKLRVQKSTWERGSLFACSVVHEGLHNHLTTKTISRSLGK
notes: The variable region is not specified there; also called mIgG2a; mouse IgG2a subclass (Fc format)
- binding: binds

— patent publication US20250154253A1 (ROCKEFELLER UNIVERSITY, published 2025)
